Data taken from article PMC7819943, “Rice protein-binding microarrays: a tool to detect cis-acting elements near promoter regions in rice”.
Some of the results follow.

The sequences below were run against T1, OsSMF1 (Oryza sativa, UniProt Q6ZLB0 1-436) (assay: protein-binding microarray (RPBM); PBS, 2% BSA, 51.3 ng/ul salmon testes DNA, 50 uM zinc acetate, 200 nM TF, 25 C, 1 h; high values mean tight binding). Conditions: protein: recombinant; tags: N-terminal polyhistidine and DsRed monomer fusion (pET32a); chain copies: 2; label: CyDye5-dUTP incorporated in the synthesized complementary strand; 3' TTTTT single-stranded linker to array surface; dsDNA, one strand shown.
T1 sequence: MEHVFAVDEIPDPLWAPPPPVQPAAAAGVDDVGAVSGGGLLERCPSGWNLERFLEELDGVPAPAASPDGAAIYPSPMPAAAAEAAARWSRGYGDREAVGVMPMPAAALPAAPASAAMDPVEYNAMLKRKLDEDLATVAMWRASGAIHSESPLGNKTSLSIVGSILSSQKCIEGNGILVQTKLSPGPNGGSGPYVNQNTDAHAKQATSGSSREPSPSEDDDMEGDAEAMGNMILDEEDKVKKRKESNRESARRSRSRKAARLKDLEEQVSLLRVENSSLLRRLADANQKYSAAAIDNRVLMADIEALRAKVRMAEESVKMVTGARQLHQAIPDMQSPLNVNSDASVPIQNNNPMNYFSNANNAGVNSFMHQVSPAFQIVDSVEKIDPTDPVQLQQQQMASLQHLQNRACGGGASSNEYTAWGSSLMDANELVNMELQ
Procedure, shortened: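 Binding signal here means per-feature fluorescence intensity in arbitrary units. The values were read on an Axon 4000B scanner after a custom Agilent array, double-stranded by primer extension with Cy5-dUTP, was incubated with 200 nM protein at 25 °C for 1 h in PBS with 2% BSA, salmon testes DNA and 50 µM zinc acetate, then washed. The proteins were transcription factors with an N-terminal polyhistidine tag and DsRed, expressed in E. coli BL21-CodonPlus and purified on Ni–NTA.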

| Sequence | binding signal |
| --- | --- |
| AGGTTCCGGGAGGGCGGGGTGGAGCACGAGGCGGCGGTGCCGGAGTCACCTAGTGCAG | 3560 fluorescence intensity (a.u.) |
| GACAAGCTCGGCACCAATCTCCACAGGAGCCGCATCAGGTCGGAGTCACCTAGTGCAG | 3420 fluorescence intensity (a.u.) |
| TGGTTACCAATTCCATCACCGAGATCACAGCAGAACTGCCCGGAGTCACCTAGTGCAG | 3190 fluorescence intensity (a.u.) |
| GGGAGTCCGTTCCACGTAGTAGTGGACAGCACAGCGACCTCGGAGTCACCTAGTGCAG | 3810 fluorescence intensity (a.u.) |
| TTGATAGTTTTGTCAAGGCGCTATGCGTCACGTAAACCATCGGAGTCACCTAGTGCAG | 5090 fluorescence intensity (a.u.) |
| GTAGGTTTAAAATTCCAGCTAGTCAGCACCTTCTAAGTTACGGAGTCACCTAGTGCAG | 5060 fluorescence intensity (a.u.) |
| GGTAGTCTGAAGCCTGTTGGTTATCCTCCTGGGAGTGTTGCGGAGTCACCTAGTGCAG | 3220 fluorescence intensity (a.u.) |
| GCGGCGTCGGTGCGGCGGCGGAGGCCATGGCGTTTGTTCTCGGAGTCACCTAGTGCAG | 23000 fluorescence intensity (a.u.) |
| AAACAATTACAAATGTTTAGCTGACATACAAGAACTGGACCGGAGTCACCTAGTGCAG | 5700 fluorescence intensity (a.u.) |
| GGATGATATGATTAACAGGATGTTATGCAGGCTGTAGATCCGGAGTCACCTAGTGCAG | 27200 fluorescence intensity (a.u.) |
| AGCTAGGTGACGATGGACTGACGACGACATGGATGGACAGCGGAGTCACCTAGTGCAG | 3320 fluorescence intensity (a.u.) |
| GCCGCCTCCGCCTCCGCCTCGCGCCGTCGCCGCCACTTCCCGGAGTCACCTAGTGCAG | 3160 fluorescence intensity (a.u.) |
| TCGTCGTGTCGACGTCCAGGGCATCGACGACACCAATCCACGGAGTCACCTAGTGCAG | 3440 fluorescence intensity (a.u.) |
| TCGAGGTGGATTATTTTATATCATTTGACTCACTAATTTCCGGAGTCACCTAGTGCAG | 5490 fluorescence intensity (a.u.) |
| ATCATCATCGGCTTGTCAATCATATCATCATCGTTCATTTCGGAGTCACCTAGTGCAG | 32300 fluorescence intensity (a.u.) |
| TCACCAGCGTCCGGTCAGCCATGGCGCTGAGTGGCCTCTTCGGAGTCACCTAGTGCAG | 21000 fluorescence intensity (a.u.) |
| TTTTATAAATCTCGAATCGATATAAAAGAAAATTGAGGACCGGAGTCACCTAGTGCAG | 24700 fluorescence intensity (a.u.) |
| CGTTATCGCGCCCACGCTGCAGCCGATCACGCACGTGGAGCGGAGTCACCTAGTGCAG | 3480 fluorescence intensity (a.u.) |
| TCTTGATTCCTGACGTAGCAGAGACACTAGACAGACACGCCGGAGTCACCTAGTGCAG | 5640 fluorescence intensity (a.u.) |
| GCCCAGCCTGCCAACCTCACATCCCGTCATCGAGATTCGCCGGAGTCACCTAGTGCAG | 4530 fluorescence intensity (a.u.) |
| GGTAGGCCCAACCACGCGGCATCCCCTCCATTATGGGCCCCGGAGTCACCTAGTGCAG | 4120 fluorescence intensity (a.u.) |

| Sequence | binding signal |
| --- | --- |
| GAAAGCTAGAAGAGAAATTGACCTGGATTGAGTTTTGTGCCGGAGTCACCTAGTGCAG | 4170 fluorescence intensity (a.u.) |
| CCAATCGATCCTTGTGCTGCTGCTGCTGCTGCGCTCGACGCGGAGTCACCTAGTGCAG | 4060 fluorescence intensity (a.u.) |
| TGGGTTGAAGCCCTCCCTGTTTGAGATCTCATTTTCCTTTCGGAGTCACCTAGTGCAG | 9910 fluorescence intensity (a.u.) |
| CGGGCCCGCGCTGGATGCGGCGCATCAGGTGGGTGGTGAACGGAGTCACCTAGTGCAG | 3150 fluorescence intensity (a.u.) |
| TGTGAATTGCATCAACCGAAAAGTAGATATTGGAGTATTTCGGAGTCACCTAGTGCAG | 65500 fluorescence intensity (a.u.) |
| GGCTGACGGCTGGTGAGAAGCCACGTCAGCATTTAATTCCCGGAGTCACCTAGTGCAG | 13100 fluorescence intensity (a.u.) |
| CTCCTGACTCCTCCTCGGTTCCTCTTCCTCTCGAGCCCTTCGGAGTCACCTAGTGCAG | 3600 fluorescence intensity (a.u.) |
| GGTGAGGGCACCAAAGTGGCTATTTGTCACCTTAGCCTTGCGGAGTCACCTAGTGCAG | 3480 fluorescence intensity (a.u.) |
| TCAAACAAGCCATGTAGGCGCCACGTTAGCCAAAACCGCTCGGAGTCACCTAGTGCAG | 8620 fluorescence intensity (a.u.) |
| TGCTAACTAGGATGCCACGTTAGCGAAACCACCCATATATCGGAGTCACCTAGTGCAG | 5850 fluorescence intensity (a.u.) |
| TTGATAGTTCGGATTTGGGGTTTGGATCCGGGAGTTGCCGCGGAGTCACCTAGTGCAG | 3270 fluorescence intensity (a.u.) |
| TGGTGGTGTAAGCCTGGACGCCGCGCCTAAATCCAGAGCGCGGAGTCACCTAGTGCAG | 34600 fluorescence intensity (a.u.) |
| ACCCTAGCCTAGTTTGCCACGACTTGGTCCCACCTGGCAGCGGAGTCACCTAGTGCAG | 5480 fluorescence intensity (a.u.) |
| GGGGTGAGGTGAGGTTACCACGTCGGCGACGGTGAGGAAGCGGAGTCACCTAGTGCAG | 6110 fluorescence intensity (a.u.) |
| GAGGGAATATTCCCTATTCCGGGCCGCCCTATCCACCCTTCGGAGTCACCTAGTGCAG | 3210 fluorescence intensity (a.u.) |
| AGCCCGATACTTTTGTTCGACGTCGGTCGCCCGAGGCAGACGGAGTCACCTAGTGCAG | 3220 fluorescence intensity (a.u.) |
| TTGATTCAAATGAAGCCTAAGTATCTACTTATAGAAACTTCGGAGTCACCTAGTGCAG | 17600 fluorescence intensity (a.u.) |
| AGTCCCCTGACATGAGAGAGGTGTGCATGTCCAAAACATCCGGAGTCACCTAGTGCAG | 3320 fluorescence intensity (a.u.) |
| GCGGGCGCCACGCCACGCCACGCCCACCCAAACAGCTTCGCGGAGTCACCTAGTGCAG | 7160 fluorescence intensity (a.u.) |
| AGACATCAGATTCCTGTCAAGAGAGCGGCCGATGATGCACCGGAGTCACCTAGTGCAG | 3460 fluorescence intensity (a.u.) |
| CAACGCCGAGGTGTGGATCACCTCGTAGATATGGAGGCGGCGGAGTCACCTAGTGCAG | 22800 fluorescence intensity (a.u.) |

An excerpt of these results, with tabs.
Sequence	binding signal
CTCCTGACTCCTCCTCGGTTCCTCTTCCTCTCGAGCCCTTCGGAGTCACCTAGTGCAG	3600 fluorescence intensity (a.u.)
GGGGTGAGGTGAGGTTACCACGTCGGCGACGGTGAGGAAGCGGAGTCACCTAGTGCAG	6110 fluorescence intensity (a.u.)
